The record followed here is publication PMC2806520.

Sequences of proteins named here, by UniProt entry; tags and fusion partners are left off.
UniProt P22147: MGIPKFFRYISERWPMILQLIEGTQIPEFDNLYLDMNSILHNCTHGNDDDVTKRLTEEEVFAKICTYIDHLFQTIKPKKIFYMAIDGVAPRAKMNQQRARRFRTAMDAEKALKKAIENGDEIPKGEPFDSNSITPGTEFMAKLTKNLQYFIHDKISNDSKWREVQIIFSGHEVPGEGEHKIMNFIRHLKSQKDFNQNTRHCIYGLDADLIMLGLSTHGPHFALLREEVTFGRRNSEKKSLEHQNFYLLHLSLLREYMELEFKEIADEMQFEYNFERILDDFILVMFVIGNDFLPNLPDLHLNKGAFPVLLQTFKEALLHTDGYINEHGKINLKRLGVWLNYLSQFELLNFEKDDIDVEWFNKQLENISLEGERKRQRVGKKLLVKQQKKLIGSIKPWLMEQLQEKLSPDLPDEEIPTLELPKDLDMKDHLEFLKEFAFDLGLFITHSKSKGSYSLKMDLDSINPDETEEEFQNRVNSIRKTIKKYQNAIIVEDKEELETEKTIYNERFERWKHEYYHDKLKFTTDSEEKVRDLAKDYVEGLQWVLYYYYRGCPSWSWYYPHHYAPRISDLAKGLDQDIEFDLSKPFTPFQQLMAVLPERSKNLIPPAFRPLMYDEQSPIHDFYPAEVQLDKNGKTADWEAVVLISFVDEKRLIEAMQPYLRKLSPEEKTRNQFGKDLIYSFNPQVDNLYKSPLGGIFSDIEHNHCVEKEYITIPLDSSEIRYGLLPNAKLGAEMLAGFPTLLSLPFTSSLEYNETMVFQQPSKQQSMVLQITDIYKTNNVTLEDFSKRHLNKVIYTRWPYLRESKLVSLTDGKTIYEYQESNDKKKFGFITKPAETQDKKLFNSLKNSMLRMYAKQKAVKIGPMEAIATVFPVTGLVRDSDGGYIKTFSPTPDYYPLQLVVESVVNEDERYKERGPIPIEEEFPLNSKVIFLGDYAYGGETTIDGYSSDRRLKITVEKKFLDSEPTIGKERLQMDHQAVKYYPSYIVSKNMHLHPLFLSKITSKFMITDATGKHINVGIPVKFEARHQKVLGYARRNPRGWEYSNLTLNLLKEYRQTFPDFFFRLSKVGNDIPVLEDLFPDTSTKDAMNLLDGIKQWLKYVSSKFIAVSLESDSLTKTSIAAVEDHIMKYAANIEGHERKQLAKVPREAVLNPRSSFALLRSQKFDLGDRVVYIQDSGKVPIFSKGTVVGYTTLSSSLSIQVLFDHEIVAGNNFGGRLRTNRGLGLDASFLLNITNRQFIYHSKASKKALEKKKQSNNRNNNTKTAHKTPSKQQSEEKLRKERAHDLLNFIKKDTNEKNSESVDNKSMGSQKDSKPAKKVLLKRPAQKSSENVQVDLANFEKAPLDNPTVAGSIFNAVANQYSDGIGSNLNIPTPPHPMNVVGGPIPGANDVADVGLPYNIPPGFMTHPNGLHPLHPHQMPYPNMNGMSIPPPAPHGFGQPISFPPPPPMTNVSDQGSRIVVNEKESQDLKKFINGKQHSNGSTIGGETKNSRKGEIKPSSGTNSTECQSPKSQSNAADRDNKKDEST

This test concerns the target T1, Rrp17p, genomically tagged with Protein A (Rrp17-PrA) (S. cerevisiae) (UniProt Q04031).
T1 sequence: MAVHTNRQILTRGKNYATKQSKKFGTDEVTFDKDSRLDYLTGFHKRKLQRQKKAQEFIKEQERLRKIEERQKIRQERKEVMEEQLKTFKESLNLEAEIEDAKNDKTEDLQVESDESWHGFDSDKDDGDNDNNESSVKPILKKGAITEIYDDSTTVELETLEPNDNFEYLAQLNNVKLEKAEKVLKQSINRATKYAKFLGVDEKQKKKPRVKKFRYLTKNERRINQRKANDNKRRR
The test can be described thus: affinity purification with mass spectrometry; single-step affinity purification of Rrp17-PrA complexes from ground frozen yeast cells on IgG-conjugated magnetic beads; SDS-PAGE, Coomassie blue, mass spectrometry.

These are yes or no findings as the source states them, for the method shown. Binding seen in cells or lysates may run through a third protein. A yes stands for co-enrichment or nearness to the bait. Other partners may have been found. Where a sequence is shown, tags or fusion partners need not be part of it.

For the substance Xrn1p (from UniProt P22147 1-1528), the binding entry was “binds”.
